Measured values reported in the supplement of paper PMC12819154, “High-throughput peptide-centric local stability assay extends protein–ligand identification to membrane proteins, tissues and bacteria” (Nature Structural & Molecular Biology, 2025).
This is one part of the list. Most entries show no effect beyond the scatter of the controls.

Chains of the proteins cited; added tags and fusions are not shown. Lines headed by an entry give the natural chain unless they say otherwise; changes in a name come on top.
UniProt P23917: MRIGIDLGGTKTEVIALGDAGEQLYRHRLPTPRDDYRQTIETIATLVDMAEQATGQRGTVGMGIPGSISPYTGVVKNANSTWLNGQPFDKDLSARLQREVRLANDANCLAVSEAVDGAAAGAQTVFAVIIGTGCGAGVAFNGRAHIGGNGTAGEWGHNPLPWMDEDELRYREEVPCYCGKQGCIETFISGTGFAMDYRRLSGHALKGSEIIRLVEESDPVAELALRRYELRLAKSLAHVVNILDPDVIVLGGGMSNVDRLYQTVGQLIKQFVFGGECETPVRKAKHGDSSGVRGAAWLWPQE
UniProt P10100: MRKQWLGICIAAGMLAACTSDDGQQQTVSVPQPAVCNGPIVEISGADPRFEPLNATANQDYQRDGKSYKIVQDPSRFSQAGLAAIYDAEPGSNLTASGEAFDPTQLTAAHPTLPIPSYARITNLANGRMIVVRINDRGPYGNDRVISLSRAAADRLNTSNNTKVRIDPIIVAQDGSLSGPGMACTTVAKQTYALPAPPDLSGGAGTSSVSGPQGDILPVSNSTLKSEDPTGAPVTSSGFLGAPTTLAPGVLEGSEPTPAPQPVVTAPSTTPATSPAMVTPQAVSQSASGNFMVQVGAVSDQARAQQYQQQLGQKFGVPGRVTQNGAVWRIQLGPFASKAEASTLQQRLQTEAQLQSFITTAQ
UniProt P21514: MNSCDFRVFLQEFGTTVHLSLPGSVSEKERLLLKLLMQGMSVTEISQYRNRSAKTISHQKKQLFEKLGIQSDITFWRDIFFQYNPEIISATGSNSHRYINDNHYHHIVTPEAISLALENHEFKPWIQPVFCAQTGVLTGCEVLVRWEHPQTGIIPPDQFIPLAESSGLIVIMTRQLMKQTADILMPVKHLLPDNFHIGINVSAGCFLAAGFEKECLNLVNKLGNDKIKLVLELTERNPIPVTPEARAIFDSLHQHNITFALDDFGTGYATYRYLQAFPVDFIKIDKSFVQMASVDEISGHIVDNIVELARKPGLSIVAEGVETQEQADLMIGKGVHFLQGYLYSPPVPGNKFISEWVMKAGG
UniProt P21645: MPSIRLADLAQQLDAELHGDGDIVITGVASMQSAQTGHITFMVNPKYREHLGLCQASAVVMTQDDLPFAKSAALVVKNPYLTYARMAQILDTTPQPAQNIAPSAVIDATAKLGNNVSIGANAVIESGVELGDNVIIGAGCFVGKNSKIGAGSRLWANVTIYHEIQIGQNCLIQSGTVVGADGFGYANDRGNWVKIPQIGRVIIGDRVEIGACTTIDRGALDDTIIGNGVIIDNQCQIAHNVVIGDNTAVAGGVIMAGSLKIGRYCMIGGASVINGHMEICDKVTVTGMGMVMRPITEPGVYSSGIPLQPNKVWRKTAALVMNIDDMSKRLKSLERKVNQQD
UniProt P21361: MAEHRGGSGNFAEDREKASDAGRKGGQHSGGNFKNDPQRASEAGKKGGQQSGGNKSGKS
UniProt P19931: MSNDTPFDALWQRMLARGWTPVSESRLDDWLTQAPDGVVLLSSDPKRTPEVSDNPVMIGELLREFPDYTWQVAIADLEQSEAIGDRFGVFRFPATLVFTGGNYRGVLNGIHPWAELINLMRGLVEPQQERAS
UniProt P0CB62: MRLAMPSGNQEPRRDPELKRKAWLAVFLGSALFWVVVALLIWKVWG
UniProt P11664: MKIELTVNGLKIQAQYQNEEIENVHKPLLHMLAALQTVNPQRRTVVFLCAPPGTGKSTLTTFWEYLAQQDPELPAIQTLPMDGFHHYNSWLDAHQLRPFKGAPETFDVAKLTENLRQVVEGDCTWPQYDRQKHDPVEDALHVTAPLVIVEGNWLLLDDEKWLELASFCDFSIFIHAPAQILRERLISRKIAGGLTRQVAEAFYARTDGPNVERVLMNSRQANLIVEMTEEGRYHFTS
UniProt P15038: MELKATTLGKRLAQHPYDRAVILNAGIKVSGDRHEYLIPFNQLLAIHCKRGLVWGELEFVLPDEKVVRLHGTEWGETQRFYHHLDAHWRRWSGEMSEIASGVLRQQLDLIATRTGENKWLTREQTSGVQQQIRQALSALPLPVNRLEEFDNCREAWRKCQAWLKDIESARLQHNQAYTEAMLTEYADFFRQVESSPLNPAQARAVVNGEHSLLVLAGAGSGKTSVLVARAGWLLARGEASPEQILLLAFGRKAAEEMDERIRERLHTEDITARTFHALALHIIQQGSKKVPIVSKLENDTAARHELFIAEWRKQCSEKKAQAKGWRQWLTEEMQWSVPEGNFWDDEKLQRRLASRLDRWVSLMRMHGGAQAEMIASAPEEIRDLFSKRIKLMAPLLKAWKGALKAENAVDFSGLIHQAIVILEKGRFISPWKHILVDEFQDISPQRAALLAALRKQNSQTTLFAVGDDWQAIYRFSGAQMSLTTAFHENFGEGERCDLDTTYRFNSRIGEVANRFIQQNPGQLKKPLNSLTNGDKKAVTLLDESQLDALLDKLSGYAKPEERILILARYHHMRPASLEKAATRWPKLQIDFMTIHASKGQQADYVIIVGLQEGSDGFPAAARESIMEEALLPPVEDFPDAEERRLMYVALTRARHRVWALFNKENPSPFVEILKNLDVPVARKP
UniProt P22256: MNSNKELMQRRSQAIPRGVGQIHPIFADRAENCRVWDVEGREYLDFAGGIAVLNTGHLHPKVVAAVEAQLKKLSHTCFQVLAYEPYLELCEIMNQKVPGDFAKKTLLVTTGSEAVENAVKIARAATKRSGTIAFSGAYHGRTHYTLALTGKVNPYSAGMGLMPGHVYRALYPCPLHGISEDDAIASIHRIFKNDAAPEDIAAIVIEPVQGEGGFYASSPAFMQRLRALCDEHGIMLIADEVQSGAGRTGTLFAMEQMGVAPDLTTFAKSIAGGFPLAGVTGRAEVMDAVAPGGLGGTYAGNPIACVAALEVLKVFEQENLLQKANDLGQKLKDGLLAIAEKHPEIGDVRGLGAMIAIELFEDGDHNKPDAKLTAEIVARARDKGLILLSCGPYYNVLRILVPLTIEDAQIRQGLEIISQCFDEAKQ
UniProt P13445, whole entry: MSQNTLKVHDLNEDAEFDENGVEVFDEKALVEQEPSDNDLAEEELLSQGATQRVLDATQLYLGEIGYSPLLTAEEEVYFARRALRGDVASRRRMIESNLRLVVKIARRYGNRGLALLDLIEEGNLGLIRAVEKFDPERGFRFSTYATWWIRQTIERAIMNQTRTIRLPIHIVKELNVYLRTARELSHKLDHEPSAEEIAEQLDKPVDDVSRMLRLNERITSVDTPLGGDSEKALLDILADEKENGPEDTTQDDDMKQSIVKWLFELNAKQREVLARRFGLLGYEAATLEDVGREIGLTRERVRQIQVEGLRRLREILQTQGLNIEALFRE
UniProt P23862: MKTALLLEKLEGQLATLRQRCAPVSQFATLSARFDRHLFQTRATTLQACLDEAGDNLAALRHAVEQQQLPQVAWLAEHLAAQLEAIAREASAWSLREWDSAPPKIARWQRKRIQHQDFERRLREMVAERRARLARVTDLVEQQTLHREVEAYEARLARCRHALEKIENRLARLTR
UniProt P15286: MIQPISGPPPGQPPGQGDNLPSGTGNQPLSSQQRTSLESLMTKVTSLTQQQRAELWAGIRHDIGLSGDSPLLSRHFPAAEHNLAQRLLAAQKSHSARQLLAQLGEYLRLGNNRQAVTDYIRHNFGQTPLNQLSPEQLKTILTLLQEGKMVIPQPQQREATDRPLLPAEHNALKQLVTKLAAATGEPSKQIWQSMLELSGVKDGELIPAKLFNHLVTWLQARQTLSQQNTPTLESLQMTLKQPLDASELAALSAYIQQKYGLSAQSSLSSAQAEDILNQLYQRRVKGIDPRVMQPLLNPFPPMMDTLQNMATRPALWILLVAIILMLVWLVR
UniProt P11289: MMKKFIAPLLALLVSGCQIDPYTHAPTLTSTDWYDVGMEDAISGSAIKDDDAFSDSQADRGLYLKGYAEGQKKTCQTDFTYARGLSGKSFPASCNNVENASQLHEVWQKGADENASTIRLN
UniProt P21338: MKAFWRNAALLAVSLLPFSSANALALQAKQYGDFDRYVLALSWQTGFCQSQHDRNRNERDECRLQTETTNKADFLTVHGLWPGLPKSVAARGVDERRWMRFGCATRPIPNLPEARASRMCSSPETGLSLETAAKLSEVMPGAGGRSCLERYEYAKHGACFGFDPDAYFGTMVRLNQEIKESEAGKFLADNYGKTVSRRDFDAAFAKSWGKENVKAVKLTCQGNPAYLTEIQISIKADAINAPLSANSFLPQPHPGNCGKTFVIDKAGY
UniProt P22524: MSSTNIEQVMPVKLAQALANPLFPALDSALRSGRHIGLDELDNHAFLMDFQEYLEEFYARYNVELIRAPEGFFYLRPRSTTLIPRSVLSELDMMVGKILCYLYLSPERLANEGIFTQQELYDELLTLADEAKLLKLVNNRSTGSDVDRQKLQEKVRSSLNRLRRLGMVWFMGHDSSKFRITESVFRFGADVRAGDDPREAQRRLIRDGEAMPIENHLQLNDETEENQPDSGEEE
UniProt P16431: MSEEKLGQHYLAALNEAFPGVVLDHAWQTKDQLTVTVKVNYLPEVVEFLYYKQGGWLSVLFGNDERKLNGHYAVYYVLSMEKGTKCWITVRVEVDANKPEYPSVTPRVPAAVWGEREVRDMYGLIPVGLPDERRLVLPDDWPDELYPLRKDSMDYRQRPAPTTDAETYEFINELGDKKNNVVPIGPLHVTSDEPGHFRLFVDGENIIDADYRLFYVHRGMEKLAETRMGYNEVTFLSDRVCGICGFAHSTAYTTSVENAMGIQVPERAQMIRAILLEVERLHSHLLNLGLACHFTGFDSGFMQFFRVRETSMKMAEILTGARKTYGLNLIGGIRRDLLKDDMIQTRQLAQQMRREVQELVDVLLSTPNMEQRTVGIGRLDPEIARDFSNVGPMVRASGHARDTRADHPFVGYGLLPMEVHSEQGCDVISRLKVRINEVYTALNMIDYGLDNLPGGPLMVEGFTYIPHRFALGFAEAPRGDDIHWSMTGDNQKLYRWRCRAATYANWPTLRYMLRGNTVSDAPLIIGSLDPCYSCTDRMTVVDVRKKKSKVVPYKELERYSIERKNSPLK
UniProt P21420: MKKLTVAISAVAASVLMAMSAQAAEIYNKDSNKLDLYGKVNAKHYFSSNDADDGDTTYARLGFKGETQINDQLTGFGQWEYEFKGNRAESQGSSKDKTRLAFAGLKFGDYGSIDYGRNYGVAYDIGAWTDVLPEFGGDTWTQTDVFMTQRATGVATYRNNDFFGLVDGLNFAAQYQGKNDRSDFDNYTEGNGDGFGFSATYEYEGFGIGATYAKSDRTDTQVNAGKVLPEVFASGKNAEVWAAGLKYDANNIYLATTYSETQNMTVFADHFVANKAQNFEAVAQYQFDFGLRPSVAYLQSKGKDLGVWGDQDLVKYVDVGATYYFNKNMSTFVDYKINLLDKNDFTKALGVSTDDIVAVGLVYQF
UniProt P15034: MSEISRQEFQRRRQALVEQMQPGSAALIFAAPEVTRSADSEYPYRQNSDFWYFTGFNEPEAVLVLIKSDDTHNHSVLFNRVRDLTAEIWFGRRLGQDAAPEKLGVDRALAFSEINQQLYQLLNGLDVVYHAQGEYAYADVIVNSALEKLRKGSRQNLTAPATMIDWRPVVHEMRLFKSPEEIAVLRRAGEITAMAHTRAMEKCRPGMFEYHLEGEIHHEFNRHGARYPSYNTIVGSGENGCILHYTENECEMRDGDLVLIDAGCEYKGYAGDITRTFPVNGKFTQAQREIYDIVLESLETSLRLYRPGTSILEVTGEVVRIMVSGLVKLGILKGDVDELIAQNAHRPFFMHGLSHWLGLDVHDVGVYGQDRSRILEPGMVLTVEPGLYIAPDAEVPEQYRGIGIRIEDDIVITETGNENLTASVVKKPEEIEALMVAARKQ
UniProt P19642: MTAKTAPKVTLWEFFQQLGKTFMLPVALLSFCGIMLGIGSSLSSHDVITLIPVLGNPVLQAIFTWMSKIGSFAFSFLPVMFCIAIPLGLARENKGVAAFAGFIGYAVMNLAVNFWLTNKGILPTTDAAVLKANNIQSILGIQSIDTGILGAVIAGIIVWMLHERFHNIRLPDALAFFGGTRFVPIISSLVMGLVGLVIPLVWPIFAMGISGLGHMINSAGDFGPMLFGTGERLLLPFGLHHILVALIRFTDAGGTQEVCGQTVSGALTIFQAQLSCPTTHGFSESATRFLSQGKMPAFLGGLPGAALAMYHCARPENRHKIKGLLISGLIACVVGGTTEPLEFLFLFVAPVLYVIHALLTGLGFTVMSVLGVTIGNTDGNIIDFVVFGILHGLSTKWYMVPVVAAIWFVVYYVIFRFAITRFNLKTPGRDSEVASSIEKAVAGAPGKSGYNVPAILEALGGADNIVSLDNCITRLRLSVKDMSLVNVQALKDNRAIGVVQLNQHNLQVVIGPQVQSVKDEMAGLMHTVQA

Each target was assayed with CC1(C)S[C@@H]2[C@H](NC(=O)[C@H](N)c3ccccc3)C(=O)N2[C@H]1C(=O)O [ampicillin] (assay: log2 fold change of tryptic peptide abundance, ligand vs vehicle (limited proteolysis) (log2 ratio); higher = more trypsin-susceptible (destabilized)). Settings: ligand concentration: 10 uM; sample: E. coli crude lysate.
“UniProt P23917 (peptide sequence: YREEVPCYCGK, peptide start residue: 170)” was tested, and the log2 fold change was -0.066. Work on “UniProt P10100 (peptide sequence: AQQYQQQLGQK, peptide start residue: 304)” yielded a log2 fold change of -0.141. For “UniProt P21514 (peptide sequence: ECLNLVNKLGNDKIK, peptide start residue: 214)”, the log2 fold change was 0.388. With “UniProt P21645 (peptide sequence: SAALVVKNPYLTYAR, peptide start residue: 71)” the log2 fold change was 0.21. With “UniProt P21361 (peptide sequence: KGGQHSGGNFK, peptide start residue: 24)” the log2 fold change was -0.166. In the case of “UniProt P19931 (peptide sequence: GLVEPQQER, peptide start residue: 122)”, the log2 fold change is reported as 0.107. Work on “UniProt P0CB62 (peptide sequence: LAMPSGNQEPR, peptide start residue: 3)” yielded a log2 fold change of 0.0374. “UniProt P11664 (peptide sequence: TVVFLCAPPGTGK, peptide start residue: 44)” showed a log2 fold change of -0.215. In the case of “UniProt P15038 (peptide sequence: YHHMRPASLEK, peptide start residue: 569)”, the log2 fold change is reported as 0.462. “UniProt P22256 (peptide sequence: VFEQENLLQK, peptide start residue: 314)” showed a log2 fold change of 0.33. Work on “UniProt P13445 (peptide sequence: RFGLLGYEAATLEDVGR, peptide start residue: 277)” yielded a log2 fold change of -0.204. With “UniProt P16525 (peptide sequence: TTFEHIVTVESELPTAAR, peptide start residue: 122)” the log2 fold change was 0.186. “UniProt P23862 (peptide sequence: LEGQLATLR, peptide start residue: 10)” showed a log2 fold change of 0.159. Work on “UniProt P23847 (peptide sequence: QALTYAVNKDAIIK, peptide start residue: 311)” yielded a log2 fold change of -0.257. Work on “UniProt P15286 (peptide sequence: HDIGLSGDSPLLSR, peptide start residue: 61)” yielded a log2 fold change of 0.392. Target “UniProt P11289 (peptide sequence: GYAEGQKK, peptide start residue: 66)” has a log2 fold change of 0.616. Target “UniProt P21338 (peptide sequence: LSEVMPGAGGR, peptide start residue: 135)” has a log2 fold change of 0.261. For “UniProt P22524 (peptide sequence: APEGFFYLRPR, peptide start residue: 68)”, the log2 fold change was -0.214. “UniProt P16431 (peptide sequence: MAEILTGAR, peptide start residue: 314)” was tested, and the log2 fold change was -0.219. In the case of “UniProt P21420 (peptide sequence: VLPEVFASGK, peptide start residue: 227)”, the log2 fold change is reported as -0.227. With “UniProt P15034 (peptide sequence: LGQDAAPEKLGVDR, peptide start residue: 94)” the log2 fold change was -0.425. “UniProt P19642 (peptide sequence: DMSLVNVQALKDNR, peptide start residue: 481)” was tested, and the log2 fold change was 0.204.
